PubChem BioAssay AID1224828 – NIAID | 2016
Screen: 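Regulators linking TLR4 signalling to p65 nuclear translocation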 (primary screen). System: mouse RAW264.7 G9 macrophage reporter cells (GFP-p65, Tnf promoter-mCherry). Knock-down reagent: siRNA pool against mouse genes, 100 nM. Duration: 2 days siRNA transfection, then 40 min LPS before fixation. Treatment: LPS (Salmonella minnesota R595) at 10 ng/ml. Measurement: 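Microscopy ratio of nuclear to perinuclear-ring GFP-p65 signal, scaled to the plate median; gene score is the average of two replicate robust z-scores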. Reading the numbers: p65 translocation robust z-score: higher = more nuclear NF-kappaB p65 after LPS than the plate median; nuclear/cytoplasmic p65 ratio: higher = more nuclear NF-kappaB p65. Rule for the call: 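Called active when z exceeds 3.3 or falls under -1.56 (median of Tlr4 controls), giving activity score of at least 50; no calls for control wells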. Meaning of the calls: active = hit (p65 shift raised or lowered); inactive = no clear change.
The whole screen tested about 17,000 reagents; shown is a random part of them. 762 of all reagents (4.5%) count as active. 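Active calls include both raised and lowered p65 entry, mostly lowered; wells with fewer than 50 cells lack a z-score.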 The raw values are shown without normalisation. Reagents against one gene are numbered here.

Arf2 showed p65 translocation robust z-score -0.17; nuclear/cytoplasmic p65 ratio, rep 1 = 1.48; nuclear/cytoplasmic p65 ratio, rep 2 = 1.59; low cell count flag enough cells to score; inactive.
Against Zan the deposit lists p65 translocation robust z-score -0.46; nuclear/cytoplasmic p65 ratio, rep 1 = 1.33; nuclear/cytoplasmic p65 ratio, rep 2 = 1.21; low cell count flag enough cells to score; inactive.
Cd74 showed p65 translocation robust z-score -0.32; nuclear/cytoplasmic p65 ratio, rep 1 = 1.34; nuclear/cytoplasmic p65 ratio, rep 2 = 1.38; low cell count flag enough cells to score; inactive.
With knock-down of Oplah, the record shows p65 translocation robust z-score 0.83; nuclear/cytoplasmic p65 ratio, rep 1 = 1.55; nuclear/cytoplasmic p65 ratio, rep 2 = 1.23; low cell count flag enough cells to score; inactive.
Silencing of Fbln2 resulted in: p65 translocation robust z-score -0.94; nuclear/cytoplasmic p65 ratio, rep 1 = 1.39; nuclear/cytoplasmic p65 ratio, rep 2 = 1.4; low cell count flag enough cells to score; inactive.
For Strbp #1, the entry reads nuclear/cytoplasmic p65 ratio, rep 1 = 1.37; nuclear/cytoplasmic p65 ratio, rep 2 = 1.15; low cell count flag fewer than 50 cells per well; well left out of scoring; inactive.
After knock-down of Strbp #2 the results were p65 translocation robust z-score 1.15; nuclear/cytoplasmic p65 ratio, rep 1 = 1.4; nuclear/cytoplasmic p65 ratio, rep 2 = 1.74; low cell count flag enough cells to score; inactive.
Bnipl showed p65 translocation robust z-score 1.25; nuclear/cytoplasmic p65 ratio, rep 1 = 1.45; nuclear/cytoplasmic p65 ratio, rep 2 = 1.7; low cell count flag enough cells to score; inactive.
For Tmem11 the deposit lists p65 translocation robust z-score -0.67; nuclear/cytoplasmic p65 ratio, rep 1 = 1.38; nuclear/cytoplasmic p65 ratio, rep 2 = 1.51; low cell count flag enough cells to score; inactive.
With knock-down of Pak1ip1, the record shows p65 translocation robust z-score 0.04; nuclear/cytoplasmic p65 ratio, rep 1 = 1.39; nuclear/cytoplasmic p65 ratio, rep 2 = 1.29; low cell count flag enough cells to score; inactive.
Knock-down of Sugp2 resulted in: p65 translocation robust z-score 0.62; nuclear/cytoplasmic p65 ratio, rep 1 = 1.39; nuclear/cytoplasmic p65 ratio, rep 2 = 1.41; low cell count flag enough cells to score; inactive.
Tas2r124 gave p65 translocation robust z-score 2.37; nuclear/cytoplasmic p65 ratio, rep 1 = 1.74; nuclear/cytoplasmic p65 ratio, rep 2 = 1.39; low cell count flag enough cells to score; inactive.
